From doi:10.1101/2020.06.04.133611 (bioRxiv, 2020)

Chains of the proteins cited; added tags and fusions are not shown. Lines headed by an entry give the natural chain unless they say otherwise; changes in a name come on top.
UniProt P64606: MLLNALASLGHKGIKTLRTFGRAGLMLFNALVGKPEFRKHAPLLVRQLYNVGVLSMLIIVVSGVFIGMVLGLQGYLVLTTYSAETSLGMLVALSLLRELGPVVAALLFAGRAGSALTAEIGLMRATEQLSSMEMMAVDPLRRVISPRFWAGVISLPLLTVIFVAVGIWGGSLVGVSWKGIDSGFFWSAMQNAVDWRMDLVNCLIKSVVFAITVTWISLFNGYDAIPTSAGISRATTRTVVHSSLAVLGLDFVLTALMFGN

B1: MlaF (natural protein)
chain: MEQSVANLVDMRDVSFTRGNRCIFDNISLTVPRGKITAIMGPSGIGKTTLLRLIGGQIAPDHGEILFDGENIPAMSRSRLYTVRKRMSMLFQSGALFTDMNVFDNVAYPLREHTQLPAPLLHSTVMMKLEAVGLRGAAKLMPSELSGGMARRAALARAIALEPDLIMFDEPFVGQDPITMGVLVKLISELNSALGVTCVVVSHDVPEVLSIADHAWILADKKIVAHGSAQALQANPDPRVRQFLDGIADGPVPFRYPAGDYHADLLPGS

What was measured:
[1] = target: T1, MlaB Thr52Ala (E. coli K-12) (UniProt P64602); assay: pull-down
T1 sequence: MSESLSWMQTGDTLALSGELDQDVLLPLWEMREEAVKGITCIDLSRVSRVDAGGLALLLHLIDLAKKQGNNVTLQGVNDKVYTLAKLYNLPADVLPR

MlaE (E. coli K-12) = MlaE (E. coli K-12) (UniProt P64606); assay: cryo-EM structure

Molecule | binding [1] | binding (MlaE (E. coli K-12))
MlaE (from UniProt P64606) | binds | 
B1 |  | binds

Results are given in words; binding and its absence hold for the method and conditions named. Binding can be weak; no strength is given. For some assays here: Binding seen in cells or lysates may run through a third protein.
